Assay results: patent US20250154261A1
No constants are given. Whether binding was seen depends on the method and setting. Some results given as binding are weak or reduced against the parent protein; the word gives no strength.

The chains behind the UniProt entries cited, without tags or fusion partners. Where a name states a change or a piece, a line headed by the entry shows the natural chain unless it says otherwise.
UniProt P20138: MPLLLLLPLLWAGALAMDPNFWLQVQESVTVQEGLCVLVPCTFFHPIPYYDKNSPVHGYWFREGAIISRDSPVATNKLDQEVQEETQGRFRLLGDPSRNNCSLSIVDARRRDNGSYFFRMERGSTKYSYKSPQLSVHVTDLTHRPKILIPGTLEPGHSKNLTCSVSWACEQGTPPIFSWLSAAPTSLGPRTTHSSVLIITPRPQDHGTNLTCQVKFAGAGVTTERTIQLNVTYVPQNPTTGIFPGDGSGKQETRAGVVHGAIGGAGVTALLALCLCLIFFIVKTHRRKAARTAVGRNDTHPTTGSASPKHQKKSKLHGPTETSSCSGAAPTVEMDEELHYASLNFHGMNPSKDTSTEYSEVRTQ

Legend:
[1] = target: V domain of human CD33 (human) (UniProt P20138); assay: SPR captured Fab
[2] = target: Deglycosylated V domain of human CD33 (human) (UniProt P20138); assay: SPR captured Fab

Binder | binding [1] | binding [2]
ADI-10159 Fab (Fab, V domains shown) VH: EVQLVESGGGLVQPGGSLRLSCAASGFTFSSYGMSWVRQAPGKGLEWVANIKQDGSEKYYVDSVKGRFTISRDNAKNSLYLQMNSLRAEDTAVYYCAREGGPYYDSSGYFVYYGMDVWGQGTTVTVSS VL: DIQMTQSPSTLSASVGDRVTITCRASQSISSWLAWYQQKPGKAPKLLIYDASSLESGVPSRFSGSGSGTEFTLTISSLQPDDFATYYCQQYESFPTFGGGTKVEIK | binds | binds
ADI-11776 Fab (Fab, V domains shown) VH: EVQLLESGGGLVQPGGSLRLSCAASGFTFSKYTMSWVRQAPGKGLEWVSAIVGSGESTYFADSVKGRFTISRDNSKNTLYLQMNSLRAEDTAVYYCAREGGPYYDSSGYFVYYGMDVWGQGTTVTVSS VL: DIQMTQSPSTLSASVGDRVTITCRASQSISSWLAWYQQKPGKAPKLLIYKASSLESGVPSRFSGSGSGTEFTLTISSLQPDDFATYYCQQYDDLPTFGGGTKVEIK | binds | binds
ADI-11807 Fab (Fab, V domains shown) VH: EVQLVESGGGLVQPGGSLRLSCAASGFTFGSYWMSWVRQAPGKGLEWVATIKQDGSEKSYVDSVKGRFTISRDNAKNSLYLQMNSLRAEDTAVYYCARPLNAGELDVWGQGTMVTVSS VL: DIQMTQSPSTLSASVGDRVTITCRASQSISSWLAWYQQKPGKAPKLLIYEASSLESGVPSRFSGSGSGTEFTLTISSLQPDDFATYYCQQSQSYPPITFGGGTKVEIK | binds | binds
ADI-11830 Fab (Fab, V domains shown) VH: EVQLVESGGGLVQPGGSLRLSCAASGFTFSSYWMSWVRQAPGKGLEWVANINTDGSEVYYVDSVKGRFTISRDNAKNSLYLQMNSLRAEDTAVYYCARDVGPGIAYQGHFDYWGQGTLVTVSS VL: DIQMTQSPSSLSASVGDRVTITCRASQVIYSYLNWYQQKPGKAPKLLIYAASSLKSGVPSRFSGSGSGTDFTLTISSLQPEDFATYYCQQVYDTPLTFGGGTKVEIK | binds | binds
ADI-11825 Fab (Fab, V domains shown) VH: EVQLVESGGGLVQPGGSLRLSCAASGFTFGGYWMSWVRQAPGKGLEWVANINQDGSEEYYVDSVKGRFTISRDNAKNSLYLQMNSLRAEDTAVYYCAREANYYGNVGDDYWGQGTLVTVSS VL: DIQMTQSPSSLSASVGDRVTITCRASQSIYNYLNWYQQKPGKAPKLLIYAASNLHSGVPSRFSGSGSGTDFTLTISSLQPEDFATYYCQQAFHVPITFGGGTKVEIK | binds | binds
ADI-11826 Fab (Fab, V domains shown) VH: EVQLVESGGGLVQPGGSLRLSCAASGFTFPGYWMSWVRQAPGKGLEWVANINQDGSEVYYVDSVKGRFTISRDNAKNSLYLQMNSLRAEDTAVYYCAREANYYGNVGDDYWGQGTLVTVSS VL: DIQMTQSPSSLSASVGDRVTITCRASQSIYNYLNWYQQKPGKAPKLLIYAASSTQSGVPSRFSGSGSGTDFTLTISSLQPEDFATYYCQQAFHVPITFGGGTKVEIK | binds | binds
ADI-11828 Fab (Fab, V domains shown) VH: EVQLVESGGGLVQPGGSLRLSCAASGFTFSSYWMSWVRQAPGKGLEWVANINQDGSEVYYVDSVKGRFTISRDNAKNSLYLQMNSLRAEDTAVYYCARDVGPGIAYQGHFDYWGQGTLVTVSS VL: DIQMTQSPSSLSASVGDRVTITCRASQSIYYYLNWYQQKPGKAPKLLIYAASSRQSGVPSRFSGSGSGTDFTLTISSLQPEDFATYYCQQVYDTPLTFGGGTKVEIK | binds | binds
ADI-11839 Fab (Fab, V domains shown) VH: QVQLVQSGAEVKKPGASVKVSCKASGYTFSNYYMHWVRQAPGQGLEWMGWINPFSGGTRYAQKFQGRVTMTRDTSTSTVYMELSSLRSEDTAVYYCARDVGSSAYYYMDVWGKGTTVTVSS VL: DIQMTQSPSSVSASVGDRVTITCEASKGISSWLAWYQQKPGKAPKLLIYAASDLQSGVPSRFSGSGSGTDFTLTISSLQPEDFATYYCQQAFLFPPTFGGGTKVEIK | binds | binds
ADI-10177 Fab (Fab, V domains shown) VH: EVQLVESGGGLVQPGGSLRLSCAASGFTFSSYWMSWVRQAPGKGLEWVANIKQDGSEKYYVDSVKGRFTISRDNAKNSLYLQMNSLRAEDTAVYYCARPLNAGELDVWGQGTMVTVSS VL: DIQMTQSPSTLSASVGDRVTITCRASQSISSWLAWYQQKPGKAPKLLIYEASSLESGVPSRFSGSGSGTEFTLTISSLQPDDFATYYCQQLESYPLTFGGGTKVEIK | binds | binds
ADI-11809 Fab (Fab, V domains shown) VH: EVQLVESGGGLVQPGGSLRLSCAASGFTFPSYWMSWVRQAPGKGLEWVATIKRDGSEKGYVDSVKGRFTISRDNAKNSLYLQMNSLRAEDTAVYYCARPLNAGELDVWGQGTMVTVSS VL: DIQMTQSPSTLSASVGDRVTITCRASQSISSWLAWYQQKPGKAPKLLIYEASSLESGVPSRFSGSGSGTEFTLTISSLQPDDFATYYCQQSQSYPPITFGGGTKVEIK | binds | binds
ADI-11819 Fab (Fab, V domains shown) VH: EVQLVESGGGLVKPGGSLRLSCAASGFTFSSYAMSWVRQAPGKGLEWVSSISSSSEGIYYADSVKGRFTISRDNAKNSLYLQMNSLRAEDTAVYYCAREGGPYYDSSGYFVYYGMDVWGQGTTVTVSS VL: DIQMTQSPSTLSASVGDRVTITCRASNSISSWLAWYQQKPGKAPKLLIYEASSTKSGVPSRFSGSGSGTEFTLTISSLQPDDFATYYCQQYDDLPTFGGGTKVEIK | binds | binds
ADI-10157 Fab (Fab, V domains shown) VH: QVQLQESGPGLVKPSETLSLTCTVSGGSISSYYWSWIRQPPGKGLEWIGSIYYSGSTNYNPSLKSRVTISVDTSKNQFSLKLSSVTAADTAVYYCARVGGVYSTIETYGMDVWGQGTTVTVSS VL: EIVMTQSPATLSVSPGERATLSCRASQSVSSNLAWYQQKPGQAPRLLIYGASTRATGIPARFSGSGSGTEFTLTISSLQSEDFAVYYCQQYTVYPPTFGGGTKVEIK | binds | binds
ADI-10161 Fab (Fab, V domains shown) VH: EVQLVESGGGLVQPGGSLRLSCAASGFTFSSYWMSWVRQAPGKGLEWVANINQDGSEKYYVDSVKGRFTISRDNAKNSLYLQMNSLRAEDTAVYYCAREGGDSWYHAFDIWGQGTMVTVSS VL: DIQMTQSPSSVSASVGDRVTITCRASQGISSWLAWYQQKPGKAPKLLIYAASNLQSGVPSRFSGSGSGTDFTLTISSLQPEDFATYYCQQKLSLPLTFGGGTKVEIK |  | binds
